PMC4393111
Results are given in words; binding and its absence hold for the method and conditions named. Binding seen in cells or lysates may run through a third protein.

Molecular target: GFP-Dzip1 (full-length mouse Dzip1) (mouse)
Assay: co-IP; G0-phase cells (line not stated) expressing GFP-Dzip1 or GFP; IP of GFP-Dzip1, blots for endogenous proteins; IP buffer 0.1% NP-40, 50 mM HEPES pH 7.00, 125 mM NaCl, 4°C

binding	Binder
no binding	endogenous IFT88 (protein, UniProt Q61371 1-824) MENVHLAPETDEDDLYSGFNDYNPAYDTEELENDTGFQQAVRTSHGRRPPVTAKIPSTAVSRPIATGYGSKTSLTSSMGRPMTGTIQDGVARPMTAVRAAGFSKAALRGSAFDPLGQSRGPAPPLEAKNEDSPEEKIRQLEKKVNELVEESCIANSCGDLKLALEKAKDAGRKERVLVRQREQVTSPENINLDLTYSVLFNLASQYSANEMYAEALNTYQVIVKNKMFSNAGRLKVNMGNIYLKQRNYSKAIKFYRMALDQIPSVHKEMRIKIMQNIGITFIKTGQYSDAINSFEHIMSMAPSLKAGFNLILSCFAIGDREKMKKAFQKLIAVPLEIDEDDKYISPSDDPHTNLLIEAIKNDHLRQMERERKAMAEKYIMTAAKLIAPVIEASFAVGYNWCVEVVKASQYVELANDLEINKAITYLRQKDFNQAVDTLKMFEKKDSRVKSAAATNLSFLYYLENEFAQASSYADLAVNSDRYNPSALTNKGNTVFANGDYEKAAEFYKEALRNDSSCTEALYNIGLTYKKLNRLDEALDSFLKLHAILRNSAQVLCQIANIYELMEDPNQAIEWLMQLISVVPTDSQALSKLGELYDSEGDKSQAFQYYYESYRYFPSNIEVIEWLGAYYIDTQFCEKAIQYFERASLIQPTQVKWQLMVASCFRRSGNYQKALDTYKEIHRKFPENVECLRFLVRLCTDIGLKEVQEYATKLKRLEKMKEMREQRIKSGRDSSGGSRSKREGSAGSDSGQNNSASSKSERLSAKLRALPGTDEPYESSGNKEIDASYVDPLGPQIERPKTAAKKRIDEDDFADEELGDDLLPE
no binding	endogenous Rabin8 (protein, UniProt Q68EF0 1-428) MANDPLEGFHEVNLASPTSPDLLGVCDPGTQEQTTSPSVIYRPHPSTLCAAPLQANALDLSDLPTQPVYSSPRHFNCAEVSNISAHAPDPASSVPSAVASGLTKLTSRKDSCNAEREFLQGATITEASAGNDDIFGLSTDSLSRLRSPSVLEVREKGYERLKEELAKAQREAHKMVREANVKQATAEKQLKEAQGKIDVLQAEVAALKTLVLSSSPTSPTQEPLAAAKTPFKRGHTRNKSTSSAMGGSHQDLSVIQPIVKDCKEADLSLYNEFRSWKDEPTMDRTCPFLDKIYQEDIFPCLTFAKSELASAVLEAVENNTLSIEPVGLQPIRFVKASAVECGGPKKCALTGQSKPCRHRIRLGDSSCCYYISPFCRYRITSVCNFFTYIRYIQQGLVKQQDVDQMFWEVMQLRKEMSLAKLGYFKEEL
